Patent US20180193496A1
No constants are given. Whether binding was seen depends on the method and setting. Some results given as binding are weak or reduced against the parent protein; the word gives no strength.

The chains behind the UniProt entries cited, without tags or fusion partners. Residues count along the entry.
UniProt P03957, residues 98-270: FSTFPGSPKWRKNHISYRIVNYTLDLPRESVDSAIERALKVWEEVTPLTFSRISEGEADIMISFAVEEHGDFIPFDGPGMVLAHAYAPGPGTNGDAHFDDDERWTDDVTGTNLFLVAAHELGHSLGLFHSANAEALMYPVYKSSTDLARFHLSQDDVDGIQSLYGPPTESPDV
UniProt P28862, residues 100-272: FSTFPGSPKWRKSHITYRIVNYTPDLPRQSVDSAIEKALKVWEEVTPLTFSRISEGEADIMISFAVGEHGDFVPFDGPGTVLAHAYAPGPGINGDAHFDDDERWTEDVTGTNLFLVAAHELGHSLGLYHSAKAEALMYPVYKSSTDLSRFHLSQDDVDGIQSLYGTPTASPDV

Assays:
[1] = molecular target: catalytic domain of rat MMP3 (rat) (UniProt P03957); assay: ELISA on biotinylated catalytic domain, scFv
[2] = molecular target: catalytic domain of mouse MMP3 (mouse) (UniProt P28862); assay: ELISA on biotinylated catalytic domain, scFv
[3] = molecular target: catalytic domain of mouse MMP3 (mouse) (UniProt P28862); assay: Biacore, catalytic domain on a CM5 chip, scFv

Measured: binding

B1: anti-human MMP3 antibody CH01 in scFv format (scFv, V domains shown)
VH: EVQLLESGGGLVQPGGSLRLSCAASGFTFSPYAMSWVRQAPGKGLEWVSAITGQGGVTYYADSVKGRFTISRDNSKNTLYLQMNSLRAEDTAVYYCAKISSFHFDYWGQGTLVTVSS
VL: EIVLTQSPGTLSLSPGERATLSCRASQSVSSHHLAWYQQKPGQAPRLLIYDASSRATGIPDRFSGSGSGTDFTLTISRLEPEDFAVYYCQQPRGAPTTFGQGTKVEIK
binds: all assays above
